Drawing on the supplement of paper PMC10849652, this text covers log2 fold change for 30 targets.

Sequences of proteins named here, by UniProt entry; tags and fusion partners are left off. A change or cut given only in a name is not applied to a line headed by its entry.
UniProt Q5TBK1: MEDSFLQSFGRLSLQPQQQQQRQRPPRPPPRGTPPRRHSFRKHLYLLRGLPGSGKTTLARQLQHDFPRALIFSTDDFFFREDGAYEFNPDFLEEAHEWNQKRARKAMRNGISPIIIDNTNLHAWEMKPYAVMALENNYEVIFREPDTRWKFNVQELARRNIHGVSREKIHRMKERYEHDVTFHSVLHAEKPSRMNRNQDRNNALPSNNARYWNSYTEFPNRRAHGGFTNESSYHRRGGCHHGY
UniProt O15049: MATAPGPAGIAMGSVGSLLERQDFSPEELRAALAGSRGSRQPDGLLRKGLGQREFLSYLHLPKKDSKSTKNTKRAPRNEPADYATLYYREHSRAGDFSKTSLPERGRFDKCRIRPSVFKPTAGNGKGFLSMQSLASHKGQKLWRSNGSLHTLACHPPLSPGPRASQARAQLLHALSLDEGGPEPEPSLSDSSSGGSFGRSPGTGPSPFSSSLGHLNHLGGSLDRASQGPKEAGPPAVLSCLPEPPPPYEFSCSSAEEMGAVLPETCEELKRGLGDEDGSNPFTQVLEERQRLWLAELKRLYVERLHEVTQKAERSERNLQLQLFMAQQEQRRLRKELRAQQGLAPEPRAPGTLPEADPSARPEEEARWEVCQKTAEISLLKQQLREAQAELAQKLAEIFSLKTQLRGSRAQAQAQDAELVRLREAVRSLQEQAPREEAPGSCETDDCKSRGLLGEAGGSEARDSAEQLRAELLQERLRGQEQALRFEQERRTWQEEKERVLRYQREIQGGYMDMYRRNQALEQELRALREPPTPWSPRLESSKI
UniProt P52298: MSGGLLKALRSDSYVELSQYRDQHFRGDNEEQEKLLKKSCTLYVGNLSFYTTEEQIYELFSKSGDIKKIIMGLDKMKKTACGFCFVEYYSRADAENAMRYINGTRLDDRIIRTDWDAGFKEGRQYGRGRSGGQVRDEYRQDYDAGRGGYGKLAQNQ
UniProt Q6N069: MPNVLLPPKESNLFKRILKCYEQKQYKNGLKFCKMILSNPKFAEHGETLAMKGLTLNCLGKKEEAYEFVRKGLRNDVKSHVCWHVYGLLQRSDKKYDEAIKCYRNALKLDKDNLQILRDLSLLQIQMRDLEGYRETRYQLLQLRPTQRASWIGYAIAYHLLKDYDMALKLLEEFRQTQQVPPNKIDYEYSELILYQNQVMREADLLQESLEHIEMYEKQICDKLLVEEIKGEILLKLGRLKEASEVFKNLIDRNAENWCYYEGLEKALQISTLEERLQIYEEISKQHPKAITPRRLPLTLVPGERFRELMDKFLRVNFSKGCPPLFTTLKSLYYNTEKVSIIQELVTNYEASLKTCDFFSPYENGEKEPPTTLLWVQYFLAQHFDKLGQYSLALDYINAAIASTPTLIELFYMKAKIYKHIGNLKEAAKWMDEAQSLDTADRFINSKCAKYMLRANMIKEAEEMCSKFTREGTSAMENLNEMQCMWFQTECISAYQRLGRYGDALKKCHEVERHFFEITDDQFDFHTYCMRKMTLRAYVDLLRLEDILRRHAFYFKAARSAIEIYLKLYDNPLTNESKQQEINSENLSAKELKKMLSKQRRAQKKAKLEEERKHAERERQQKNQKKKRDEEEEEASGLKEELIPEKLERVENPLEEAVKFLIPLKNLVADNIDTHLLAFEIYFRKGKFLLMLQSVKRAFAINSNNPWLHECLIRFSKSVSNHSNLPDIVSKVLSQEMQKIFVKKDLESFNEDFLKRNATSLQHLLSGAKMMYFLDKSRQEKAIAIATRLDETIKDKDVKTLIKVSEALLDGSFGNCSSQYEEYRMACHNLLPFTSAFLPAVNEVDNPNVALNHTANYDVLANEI
UniProt P55209: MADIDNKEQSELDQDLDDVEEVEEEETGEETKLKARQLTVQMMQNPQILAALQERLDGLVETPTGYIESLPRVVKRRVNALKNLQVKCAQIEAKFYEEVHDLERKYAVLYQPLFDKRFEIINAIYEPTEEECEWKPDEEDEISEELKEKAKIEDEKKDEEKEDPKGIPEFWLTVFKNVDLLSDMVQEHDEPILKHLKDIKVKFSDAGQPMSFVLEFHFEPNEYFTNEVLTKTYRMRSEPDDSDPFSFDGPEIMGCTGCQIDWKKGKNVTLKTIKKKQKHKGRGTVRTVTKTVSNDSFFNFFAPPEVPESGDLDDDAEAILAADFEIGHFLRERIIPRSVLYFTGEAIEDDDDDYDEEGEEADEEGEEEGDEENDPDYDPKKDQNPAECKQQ
UniProt Q13506: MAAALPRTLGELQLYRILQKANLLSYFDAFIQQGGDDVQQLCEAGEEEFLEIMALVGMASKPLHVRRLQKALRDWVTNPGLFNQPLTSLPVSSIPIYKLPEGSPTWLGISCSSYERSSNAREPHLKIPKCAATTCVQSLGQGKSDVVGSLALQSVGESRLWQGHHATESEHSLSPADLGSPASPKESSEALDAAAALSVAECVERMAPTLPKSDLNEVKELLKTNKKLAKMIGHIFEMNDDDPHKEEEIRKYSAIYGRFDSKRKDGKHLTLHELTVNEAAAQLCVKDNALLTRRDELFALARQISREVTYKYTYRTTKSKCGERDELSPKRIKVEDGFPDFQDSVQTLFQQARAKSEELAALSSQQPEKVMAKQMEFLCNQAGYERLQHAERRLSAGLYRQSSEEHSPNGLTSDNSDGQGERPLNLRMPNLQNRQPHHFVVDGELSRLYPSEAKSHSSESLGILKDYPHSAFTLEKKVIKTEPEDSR
UniProt Q96AH0: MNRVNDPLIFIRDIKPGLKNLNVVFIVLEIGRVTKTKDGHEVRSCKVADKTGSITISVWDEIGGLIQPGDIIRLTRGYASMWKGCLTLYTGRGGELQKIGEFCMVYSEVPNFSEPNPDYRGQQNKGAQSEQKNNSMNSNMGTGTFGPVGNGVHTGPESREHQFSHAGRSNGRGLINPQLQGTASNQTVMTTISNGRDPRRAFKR
UniProt Q96S97: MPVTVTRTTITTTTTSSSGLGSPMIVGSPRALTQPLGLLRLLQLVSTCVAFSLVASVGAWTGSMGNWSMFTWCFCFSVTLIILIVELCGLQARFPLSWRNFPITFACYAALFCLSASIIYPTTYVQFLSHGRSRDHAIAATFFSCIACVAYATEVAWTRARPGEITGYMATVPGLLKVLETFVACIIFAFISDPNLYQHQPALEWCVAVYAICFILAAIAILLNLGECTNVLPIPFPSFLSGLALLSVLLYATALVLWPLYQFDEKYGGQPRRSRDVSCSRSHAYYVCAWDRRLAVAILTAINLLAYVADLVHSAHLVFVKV
UniProt Q9H0A0: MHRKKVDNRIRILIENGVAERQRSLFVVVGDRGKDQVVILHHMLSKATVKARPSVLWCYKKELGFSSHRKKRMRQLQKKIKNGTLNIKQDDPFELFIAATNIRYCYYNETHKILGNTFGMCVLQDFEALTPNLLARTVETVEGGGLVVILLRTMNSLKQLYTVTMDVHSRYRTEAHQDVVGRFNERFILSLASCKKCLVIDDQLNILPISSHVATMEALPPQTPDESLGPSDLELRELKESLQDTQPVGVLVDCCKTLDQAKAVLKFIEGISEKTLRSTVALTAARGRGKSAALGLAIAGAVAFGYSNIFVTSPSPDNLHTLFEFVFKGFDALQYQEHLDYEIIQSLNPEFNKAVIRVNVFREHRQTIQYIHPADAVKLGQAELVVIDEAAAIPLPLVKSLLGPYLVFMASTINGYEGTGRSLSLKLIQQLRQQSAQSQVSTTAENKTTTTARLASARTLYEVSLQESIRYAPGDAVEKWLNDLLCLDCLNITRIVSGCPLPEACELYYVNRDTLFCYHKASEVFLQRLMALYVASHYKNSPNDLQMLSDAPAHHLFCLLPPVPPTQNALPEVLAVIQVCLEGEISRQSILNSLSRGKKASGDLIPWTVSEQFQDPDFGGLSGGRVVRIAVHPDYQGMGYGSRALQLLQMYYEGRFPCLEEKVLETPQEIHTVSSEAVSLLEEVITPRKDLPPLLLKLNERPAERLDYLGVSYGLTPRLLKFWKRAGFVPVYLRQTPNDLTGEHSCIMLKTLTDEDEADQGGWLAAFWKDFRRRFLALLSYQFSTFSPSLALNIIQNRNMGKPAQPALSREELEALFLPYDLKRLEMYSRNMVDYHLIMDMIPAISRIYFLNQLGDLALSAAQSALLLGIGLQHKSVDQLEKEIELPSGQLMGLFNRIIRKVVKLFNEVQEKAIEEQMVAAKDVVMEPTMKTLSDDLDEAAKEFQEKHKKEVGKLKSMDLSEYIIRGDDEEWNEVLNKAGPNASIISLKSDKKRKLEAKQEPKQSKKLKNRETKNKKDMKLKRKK
UniProt Q13564: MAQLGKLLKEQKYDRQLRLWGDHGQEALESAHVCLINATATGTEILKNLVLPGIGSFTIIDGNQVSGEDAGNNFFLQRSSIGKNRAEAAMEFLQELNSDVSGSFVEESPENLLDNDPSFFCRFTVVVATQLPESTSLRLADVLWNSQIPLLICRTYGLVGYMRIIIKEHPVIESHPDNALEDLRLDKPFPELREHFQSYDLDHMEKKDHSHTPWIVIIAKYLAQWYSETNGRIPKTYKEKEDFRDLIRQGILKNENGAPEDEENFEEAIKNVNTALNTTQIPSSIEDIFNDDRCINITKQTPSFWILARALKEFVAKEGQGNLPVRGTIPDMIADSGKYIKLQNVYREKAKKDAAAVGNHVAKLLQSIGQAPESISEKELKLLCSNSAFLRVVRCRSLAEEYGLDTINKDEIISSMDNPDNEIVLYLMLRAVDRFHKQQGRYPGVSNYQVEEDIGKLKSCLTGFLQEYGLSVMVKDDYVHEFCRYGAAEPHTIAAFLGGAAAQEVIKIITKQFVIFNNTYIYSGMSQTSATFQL
UniProt P60660, whole entry, looked up: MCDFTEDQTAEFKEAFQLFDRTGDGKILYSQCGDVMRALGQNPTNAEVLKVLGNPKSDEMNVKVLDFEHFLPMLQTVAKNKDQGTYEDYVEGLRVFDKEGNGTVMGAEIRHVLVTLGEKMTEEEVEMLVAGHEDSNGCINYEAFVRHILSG
UniProt Q15080: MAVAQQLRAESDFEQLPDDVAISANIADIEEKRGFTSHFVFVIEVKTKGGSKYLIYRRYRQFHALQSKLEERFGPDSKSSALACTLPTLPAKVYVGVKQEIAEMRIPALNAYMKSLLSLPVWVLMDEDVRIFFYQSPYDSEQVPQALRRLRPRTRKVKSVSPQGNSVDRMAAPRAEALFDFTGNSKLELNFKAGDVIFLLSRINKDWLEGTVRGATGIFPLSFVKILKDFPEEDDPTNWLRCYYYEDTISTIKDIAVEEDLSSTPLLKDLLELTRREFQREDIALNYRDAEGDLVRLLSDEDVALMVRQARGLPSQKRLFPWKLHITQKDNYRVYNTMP
UniProt Q32MK0: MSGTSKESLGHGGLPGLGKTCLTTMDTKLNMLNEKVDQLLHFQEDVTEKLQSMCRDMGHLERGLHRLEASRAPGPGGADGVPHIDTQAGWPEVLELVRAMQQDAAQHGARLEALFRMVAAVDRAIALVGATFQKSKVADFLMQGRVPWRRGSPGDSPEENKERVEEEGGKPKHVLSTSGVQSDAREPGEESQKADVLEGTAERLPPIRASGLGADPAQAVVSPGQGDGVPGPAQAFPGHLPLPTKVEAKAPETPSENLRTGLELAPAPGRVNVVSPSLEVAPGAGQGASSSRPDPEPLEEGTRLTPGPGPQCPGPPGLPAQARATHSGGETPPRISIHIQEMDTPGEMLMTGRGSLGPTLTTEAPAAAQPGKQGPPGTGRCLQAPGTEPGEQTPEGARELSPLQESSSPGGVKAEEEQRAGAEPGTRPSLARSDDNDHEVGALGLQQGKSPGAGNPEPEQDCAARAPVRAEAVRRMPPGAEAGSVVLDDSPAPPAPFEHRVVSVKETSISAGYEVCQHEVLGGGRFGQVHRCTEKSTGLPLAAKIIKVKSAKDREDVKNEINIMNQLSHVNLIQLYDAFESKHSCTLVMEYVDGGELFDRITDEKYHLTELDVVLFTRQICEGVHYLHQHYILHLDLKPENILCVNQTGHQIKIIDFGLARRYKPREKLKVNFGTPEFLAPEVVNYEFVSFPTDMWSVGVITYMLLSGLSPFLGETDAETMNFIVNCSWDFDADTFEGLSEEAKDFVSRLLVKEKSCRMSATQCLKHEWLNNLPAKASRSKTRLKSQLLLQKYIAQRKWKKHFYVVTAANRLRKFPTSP
UniProt Q96I59: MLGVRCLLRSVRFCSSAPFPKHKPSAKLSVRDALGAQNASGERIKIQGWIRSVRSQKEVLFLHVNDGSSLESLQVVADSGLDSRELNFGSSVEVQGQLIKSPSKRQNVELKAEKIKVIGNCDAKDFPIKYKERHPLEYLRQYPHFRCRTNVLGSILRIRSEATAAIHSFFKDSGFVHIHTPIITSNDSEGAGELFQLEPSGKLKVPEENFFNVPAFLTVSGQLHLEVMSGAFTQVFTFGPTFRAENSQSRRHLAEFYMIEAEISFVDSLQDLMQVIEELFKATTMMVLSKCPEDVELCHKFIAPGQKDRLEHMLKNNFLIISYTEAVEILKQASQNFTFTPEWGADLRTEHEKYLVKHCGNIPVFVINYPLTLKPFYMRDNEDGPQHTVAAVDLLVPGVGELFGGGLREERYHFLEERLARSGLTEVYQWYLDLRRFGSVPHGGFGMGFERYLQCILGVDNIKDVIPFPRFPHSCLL

Common to all, as to assay: log2 fold change, soluble protein after heating vs DMSO (PISA); higher = thermal stabilisation; K562 lysate, 10 uM; active = over 0.2 and 3.5 SD of the protein, either way, in both replicates (recomputed)
Compound in assay [1]: NCC(=O)Nc1ccc(-n2nc(C(F)(F)F)cc2-c2ccc3c(ccc4ccccc43)c2)cc1
The method, boiled down:
(§1)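 A 30 min treatment with 10 μM compound was applied to crude K562 extract at 1 mg/mL protein in PBS pH 7.4 with 1 mM MgCl2. Heating for 3 min spanned 48°C-58°C, after which aliquots were pooled, adjusted to 0.5% NP-40 at 4°C and spun at 21,000xg for 90 min. TMTpro 16plex LC-MS/MS of the supernatant, with channel sums equalised, gave values recorded as log-two fold change in thermal stability against solvent controls, from duplicates.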

Compound in the next assay: c1cn2cc(-c3ccc4cn[nH]c4c3)nc(Nc3ccc(N4CCOCC4)cc3)c2n1 [entospletinib]
The method, boiled down: as §1

Compound in another assay: O=C(CCCCCCC(=O)Nc1ccccc1)NO [vorinostat]
Summed up:
as §1

Compound in the next assay: O=C(O)c1ccc2c(c1)nc(Nc1cccc(Cl)c1)c1ccncc12 [silmitasertib]
Summed up:
as §1

Compound in assay [2]: O=C1NC(=O)C(c2cnc3ccccn23)=C1c1cn2c3c(cc(F)cc13)CN(C(=O)N1CCCCC1)CC2
Summed up: as §1

This is one part of the list.

As to N4BP2L1 (UniProt Q5TBK1), the results for the log2 fold change (in assay [1]; in the assay with entospletinib) were inactive: -0.063 and inactive: -0.022, respectively.
As to NCALD (UniProt P61601), the log2 fold change is inactive: -0.051 in assay [1]; inactive: -0.073 with vorinostat; inactive: -0.002 in the assay with silmitasertib; inactive: 0.031 in assay [2]; inactive: 0.017 with entospletinib.
On the same counts, the results for MYL4 (UniProt P12829) are inactive: -0.036, inactive: 0.095, inactive: -0.042, inactive: 0.026 and inactive: -0.085.
Turning to N4BP3 (UniProt O15049), the log2 fold change is inactive: -0.666 in the assay with vorinostat and inactive: 0.129 in the assay with silmitasertib.
Consider MYLK (UniProt Q15746), for which the log2 fold change in assay [1] is inactive: -0.312; in assay [2] it was inactive: -0.294; in the assay with entospletinib, inactive: -0.096.
Take NCBP2 (UniProt P52298): the log2 fold change in assay [1] is inactive: -0.024; in the assay with vorinostat, inactive: -0.013; with silmitasertib it was inactive: 0.047; in assay [2] it was inactive: -0.024; in the assay with entospletinib it was inactive: -0.008.
For NAA16 (UniProt Q6N069), the values for the log2 fold change (in assay [1]; with entospletinib) were inactive: 0.43 and inactive: -0.018, respectively.
For NCKAP1L (UniProt P55160), the log2 fold change in assay [1] is inactive: 0.288; in the assay with vorinostat it was active: -0.444; in the assay with silmitasertib, inactive: -0.039; in assay [2], inactive: -0.001; with entospletinib, inactive: 0.029.
Take NARS1 (UniProt K7ENF0): in assay [2], the log2 fold change was inactive: 0.066.
Turning to NAP1L1 (UniProt P55209), the log2 fold change in assay [1] is inactive: -0.021; in the assay with vorinostat, inactive: 0.101; in the assay with silmitasertib it was inactive: -0.01; in assay [2], inactive: 0.006; with entospletinib it was inactive: -0.014.
Take NAB1 (UniProt Q13506): the log2 fold change is inactive: -0.311 with vorinostat, inactive: 0.02 with silmitasertib and inactive: 0.039 in assay [2].
Take NABP1 (UniProt Q96AH0): the log2 fold change in assay [1] was inactive: -0.312; in the assay with entospletinib, inactive: -0.064.
Consider MYADM (UniProt Q96S97), for which the log2 fold change was inactive: 0.101 in assay [1]; inactive: -0.007 with vorinostat; inactive: -0.06 with silmitasertib; inactive: 0.03 in assay [2]; inactive: -0.028 in the assay with entospletinib.
In the same order, the values of NAT10 (UniProt Q9H0A0) are inactive: 0.027, inactive: -0.011, inactive: 0.029, inactive: -0.012 and inactive: -0.007.
Turning to NCCRP1 (UniProt Q6ZVX7), the log2 fold change in assay [2] was inactive: 0.376.
With NCKAP5L (UniProt Q9HCH0), the log2 fold change with vorinostat is inactive: -0.129; in the assay with silmitasertib, inactive: 0.067; in assay [2] it was inactive: -0.007; with entospletinib, inactive: 0.011.
NCK1 (UniProt P16333): the log2 fold change in assay [1] is inactive: 0.048; in the assay with vorinostat it was active: -0.281; with silmitasertib, inactive: 0.01; in assay [2], inactive: -0.014; with entospletinib, inactive: 0.019.
As to NAMPT (UniProt C9JF35), the log2 fold change in the assay with vorinostat is inactive: -0.03; with silmitasertib, inactive: 0.146.
As to NAE1 (UniProt Q13564), the log2 fold change in assay [1] is inactive: 0.022; with vorinostat it was inactive: 0.007; with silmitasertib, inactive: -0.02; in assay [2], inactive: -0.034; with entospletinib, inactive: -0.002.
On the same counts, the results for MYL6 (UniProt P60660) are inactive: -0.113, inactive: 0.072, inactive: 0.001, inactive: 0.007 and inactive: -0.044.
As to MUC5B (UniProt Q9HC84), the log2 fold change in the assay with vorinostat is inactive: -0.374; in the assay with silmitasertib, inactive: 0.128; in assay [2] it was inactive: -0.011; with entospletinib, inactive: 0.022.
In the same order, the values of MYH6 (UniProt P13533) are inactive: 0.209, inactive: -0.053, inactive: 0.188 and inactive: 0.102.
Take NAGA (UniProt P17050): the log2 fold change in assay [1] is inactive: -0.04; with vorinostat it was inactive: 0.062; in the assay with silmitasertib, inactive: -0.03; in assay [2], inactive: -0.015; with entospletinib it was inactive: -0.024.
On the same counts, the results for MYH11 isoform 2 (UniProt P35749) are inactive: 0.014, inactive: 0.042, inactive: 0.02, inactive: -0.005 and inactive: 0.013.
On the same counts, the results for MVK (UniProt Q03426) are inactive: 0.006, inactive: 0.13, inactive: 0.008, inactive: -0.016 and inactive: -0.037.
In the case of NCF4 (UniProt Q15080), the results for the log2 fold change (in assay [2]; in the assay with entospletinib) were inactive: -0.075 and inactive: 0.036, respectively.
MYLK3 (UniProt Q32MK0): the log2 fold change is inactive: -0.182 with vorinostat, inactive: -0.117 with silmitasertib, inactive: 0.024 in assay [2] and inactive: -0.109 with entospletinib.
As for MYL6 (UniProt G3V1V0), the log2 fold change in assay [1] was inactive: -0.297; in the assay with vorinostat it was inactive: -0.023; in the assay with silmitasertib, inactive: 0.105; in assay [2], inactive: -0.061; with entospletinib, inactive: -0.102.
In the case of NARS2 (UniProt Q96I59), the log2 fold change in assay [1] is inactive: 0.063; with vorinostat it was active: -0.344; with silmitasertib, inactive: 0.05; in assay [2], inactive: -0.029; in the assay with entospletinib, inactive: -0.079.
In the case of MYL12A (UniProt P19105), the log2 fold change with vorinostat was inactive: 0.171; with silmitasertib, inactive: 0.035.
